The list does not hold the whole screen: it is rich in T/C values a quarter to a half above the control, in often repeated tests (any T/C) and in doses without a T/C. Further doses and runs are listed elsewhere. T/C is the treated group as % of the vehicle group. Some entries give survivors of the animals treated and no T/C: the source files T/C as zero there, which appears to mark a toxic dose or a test without result, not a measured value. Some doses without a T/C left all or most animals alive at the check, yet need not have been tolerated: survival well below the control is almost never listed, so the zero probably covers shortened survival too. Survivors were counted at the toxicity check, usually on the fifth day, unless a day is given; later deaths do not show. Schedules are NCI's codes, read here as Q, the interval in days (D) or hours (H), X, the number of doses. For survival time, the PubChem record calls one and a half times the control and up active, and a quarter to a half above the control has no call in these data; cut-offs in other NCI protocols can differ. Some entries were tested several times; their values stand side by side, smallest first. Some T/C values carry the count of animals alive at the toxicity check (mostly the fifth day); without a count, all were alive then.
Tested on: CD2F1 mice, L1210 leukemia ip, survival T/C
Experiment: NCI In Vivo Anticancer Drug Screen. Data for tumor model L1210 Leukemia (intraperitoneal) in CD2F1 (CDF1) mice
Conditions: higher T/C = longer survival
Method: The antitumor activity of compounds was measured in mice bearing transplantable tumors. Survival or tumor size were measured and the results are expressed as the measurement made in the treated group (T) divided by the measurement made in the vehicle treated control group (C). The tumor model used in this assay is L1210 Leukemia (intraperitoneal) in CD2F1 (CDF1) mice

[1] = T/C endpoint: mean survival time, dose: 200.0 mg/kg/injection, schedule: Q01DX009 (ip), vehicle: saline with Tween-80
[2] = T/C endpoint: mean survival time, dose: 100.0 mg/kg/injection, schedule: Q01DX009 (ip), vehicle: saline with Tween-80
[3] = T/C endpoint: mean survival time, dose: 400.0 mg/kg/injection, schedule: Q01DX001 (ip), vehicle: saline with Tween-80
[4] = T/C endpoint: mean survival time, dose: 100.0 mg/kg/injection, schedule: Q04DX003 (ip), vehicle: saline with Tween-80
[5] = T/C endpoint: mean survival time, dose: 400.0 mg/kg/injection, schedule: Q04DX003 (ip), vehicle: saline with Tween-80
[6] = T/C endpoint: mean survival time, dose: 200.0 mg/kg/injection, schedule: Q04DX003 (ip), vehicle: saline with Tween-80
[7] = T/C endpoint: mean survival time, dose: 400.0 mg/kg/injection, schedule: Q01DX009 (ip), vehicle: saline with Tween-80

`Cc1ccc(C(C)C)c(OCCN)c1` was tested, and the survivor count (T/C endpoint: mean survival time, dose: 200.0 mg/kg/injection, schedule: Q04DX002 (ip), vehicle: saline) was 0 of 3 and the survivor count (T/C endpoint: mean survival time, dose: 400.0 mg/kg/injection, schedule: Q04DX002 (ip), vehicle: saline) was 0 of 3.
In the case of `CCCNC(=O)Oc1cccc(NC(=O)CC)c1`, the survivor count [1] is reported as 6 of 6.
With `CN1CCCC1CCNc1nc(Nc2ccc(Cl)c(Cl)c2)nc2ccc(Cl)cc12` (stereo unspecified) the survivor count (T/C endpoint: mean survival time, dose: 50.0 mg/kg/injection, schedule: Q01DX009 (ip), vehicle: saline with Tween-80) was 2 of 6, the survivor count [2] was 0 of 6 and the survivor count (T/C endpoint: mean survival time, dose: 200.0 mg/kg/injection, schedule: Q01DX001 (ip), vehicle: saline with Tween-80) was 1 of 6. For the same compound, the survivor count [3] was 0 of 6.
With `Cc1cn(C2CC(OP(=O)(O)OCC3OC(n4cc(C)c(=O)[nH]c4=O)CC3OP(=O)(O)OCC3OC(n4cc(C)c(=O)[nH]c4=O)CC3OP(=O)(O)OCC3OC(n4cc(C)c(=O)[nH]c4=O)CC3OP(=O)(O)OCC3OC(n4ccc(N)nc4=O)C(O)C3O)C(CO)O2)c(=O)[nH]c1=O` (stereo unspecified) the T/C (T/C endpoint: median survival time, dose: 50.0 mg/kg/injection, schedule: Q01DX005 (ip), vehicle: saline) was 130 % of control, the T/C (T/C endpoint: median survival time, dose: 100.0 mg/kg/injection, schedule: Q01DX005 (ip), vehicle: saline) was 139 % of control and the T/C (T/C endpoint: median survival time, dose: 200.0 mg/kg/injection, schedule: Q01DX005 (ip), vehicle: saline) was 135 and 139 % of control. The T/C (T/C endpoint: median survival time, dose: 400.0 mg/kg/injection, schedule: Q01DX005 (ip), vehicle: saline) was 148 % of control.
With `COc1cc(OC)c(OC)cc1/C=c1\[nH]c(=O)/c(=C/c2cc(OC)c(OC)cc2OC)[nH]c1=O` the survivor count [4] was 6 of 6 and the survivor count [5] was 4 of 6.
In the case of `COc1cc(NS(C)(=O)=O)ccc1Nc1c2ccccc2nc2cc(C(F)(F)F)c(N)cc12`, the T/C (T/C endpoint: mean survival time, dose: 25.0 mg/kg/injection, schedule: Q01DX009 (ip), vehicle: Klucel (hydroxypropylcellulose) (HPC)) is reported as 125 % of control, the T/C (T/C endpoint: mean survival time, dose: 50.0 mg/kg/injection, schedule: Q01DX001 (ip), vehicle: Klucel (hydroxypropylcellulose) (HPC)) is reported as 125 % of control and the T/C (T/C endpoint: mean survival time, dose: 50.0 mg/kg/injection, schedule: Q01DX009 (ip), vehicle: Klucel (hydroxypropylcellulose) (HPC)) is reported as 142 % of control. For the same compound, the T/C (T/C endpoint: mean survival time, dose: 100.0 mg/kg/injection, schedule: Q01DX001 (ip), vehicle: Klucel (hydroxypropylcellulose) (HPC)) was 136 % of control [4 of 6 alive], the T/C (T/C endpoint: mean survival time, dose: 100.0 mg/kg/injection, schedule: Q01DX009 (ip), vehicle: Klucel (hydroxypropylcellulose) (HPC)) was 146 % of control and the survivor count (T/C endpoint: mean survival time, dose: 200.0 mg/kg/injection, schedule: Q01DX009 (ip), vehicle: Klucel (hydroxypropylcellulose) (HPC)) was 6 of 6. For the same compound, the survivor count (T/C endpoint: mean survival time, dose: 400.0 mg/kg/injection, schedule: Q01DX009 (ip), vehicle: Klucel (hydroxypropylcellulose) (HPC)) was 1 of 6.
For `Cc1cn(C2CC(O)C(Cn3ccc4ccccc43)O2)c(=O)[nH]c1=O` (stereo unspecified), the survivor count (T/C endpoint: mean survival time, dose: 50.0 mg/kg/injection, schedule: Q01DX005 (ip), vehicle: Klucel (hydroxypropylcellulose) (HPC)) was 5 of 5, the survivor count (T/C endpoint: mean survival time, dose: 100.0 mg/kg/injection, schedule: Q01DX005 (ip), vehicle: Klucel (hydroxypropylcellulose) (HPC)) was 5 of 5 and the survivor count (T/C endpoint: mean survival time, dose: 200.0 mg/kg/injection, schedule: Q01DX005 (ip), vehicle: Klucel (hydroxypropylcellulose) (HPC)) was 5 of 5.
With `Cc1ccc(CCF)cc1` the survivor count [3] was 3 of 6.
In the case of `CCCCCCCCCCCCN1CCCC(O)C1` (stereo unspecified), the survivor count [1] is reported as 0 of 6.
`NC(=O)c1cn(C2OC(CO)C(O)C2O)c2ncn3ncnc3c12` (stereo unspecified) was tested, and the T/C (T/C endpoint: mean survival time, dose: 25.0 mg/kg/injection, schedule: Q01DX005 (ip), vehicle: water) was 128 % of control, the survivor count (T/C endpoint: mean survival time, dose: 100.0 mg/kg/injection, schedule: Q01DX005 (ip), vehicle: water) was 0 of 6 and the survivor count (T/C endpoint: mean survival time, dose: 200.0 mg/kg/injection, schedule: Q01DX005 (ip), vehicle: water) was 0 of 6. For the same compound, the survivor count (T/C endpoint: mean survival time, dose: 400.0 mg/kg/injection, schedule: Q01DX005 (ip), vehicle: water) was 0 of 6.
In the case of `[Cl][Pt+2][Cl].[NH-]c1cccc(C(F)(F)F)c1.[NH-]c1cccc(C(F)(F)F)c1`, the survivor count [4] is reported as 2 of 6 and the survivor count [6] is reported as 0 of 6.
In the case of `Nc1ncnc2c1nc(-c1ccccc1)n2C1OC(CO)C(O)C1O` (stereo unspecified), the survivor count (T/C endpoint: median survival time, dose: 400.0 mg/kg/injection, schedule: Q01DX005 (ip), vehicle: distilled water + Tween-80) is reported as 3 of 6.
For `O=[N+]([O-])c1ccc2nsnc2c1`, the survivor count [7] was 5 of 6.
`O=NN(Cc1cccnc1)Cc1cccnc1` was tested, and the survivor count (T/C endpoint: mean survival time, dose: 300.0 mg/kg/injection, schedule: Q01DX001 (ip), vehicle: water) was 0 of 6.
For `O=[N+]([O-])c1ccccc1CSc1ncnc2nc[nH]c12`, the T/C [6] was 134 and 141 % of control and the survivor count (T/C endpoint: mean survival time, dose: 300.0 mg/kg/injection, schedule: Q04DX003 (ip), vehicle: saline with Tween-80) was 6 of 6.
For `CN(C)P1(=S)NCC(C(C)(C)C)CO1` (stereo unspecified), the survivor count (T/C endpoint: mean survival time, dose: 500.0 mg/kg/injection, schedule: Q01DX001 (ip), vehicle: distilled water + Tween-80) was 2 of 6.
`CCCCCCCCCCCCCC(=O)N(C)C` was tested, and the survivor count [5] was 3 of 6.
With `CC([NH-])C([NH-])O.O=[N+]([O-])O.O=[N+]([O-])O.[Pt+2]` (stereo unspecified) the T/C (T/C endpoint: mean survival time, dose: 6.25 mg/kg/injection, schedule: Q04DX003 (ip), vehicle: saline) was 139 % of control.
`CC(C)(C)c1ccc(OCC(=O)O)cc1` was tested, and the survivor count (T/C endpoint: mean survival time, dose: 400.0 mg/kg/injection, schedule: Q04DX003 (ip), vehicle: other) was 0 of 6.
In the case of `O=C(O)CCC(O)C(=O)O.[NH-]C1CCCCC1[NH-].[Pt+2]` (stereo unspecified), the T/C (T/C endpoint: median survival time, dose: 6.25 mg/kg/injection, schedule: Q04DX003 (ip), vehicle: saline) is reported as 135 % of control, the T/C (T/C endpoint: median survival time, dose: 25.0 mg/kg/injection, schedule: Q04DX003 (ip), vehicle: saline) is reported as 134 % of control and the T/C (T/C endpoint: median survival time, dose: 100.0 mg/kg/injection, schedule: Q04DX003 (ip), vehicle: saline) is reported as 146 % of control [5 of 6 alive]. For the same compound, the survivor count (T/C endpoint: median survival time, dose: 200.0 mg/kg/injection, schedule: Q04DX003 (ip), vehicle: saline) was 2 of 6.
In the case of `C[N+]1=C(c2ccccc2)CCC(C(C)(C)C)C1` (stereo unspecified), the survivor count (T/C endpoint: mean survival time, dose: 300.0 mg/kg/injection, schedule: Q01DX001 (ip), vehicle: saline) is reported as 2 of 6.
With `C=C1N(C)c2ccccc2C1(C)C` the survivor count (T/C endpoint: mean survival time, dose: 25.0 mg/kg/injection, schedule: Q01DX009 (ip), vehicle: saline with Tween-80) was 2 of 6, the survivor count [2] was 5 of 6 and the survivor count [1] was 0 of 6. The survivor count [7] was 0 of 6.
In the case of `N#CCCN(C(=S)Nc1cccc(C(F)(F)F)c1)C1CCCCC1`, the survivor count (T/C endpoint: median survival time, dose: 800.0 mg/kg/injection, schedule: Q01DX009 (ip), vehicle: Klucel (hydroxypropylcellulose) (HPC)) is reported as 0 of 6.
In the case of `[Cl][Pt+2][Cl].[NH-]c1ccc(F)cc1.[NH-]c1ccc(F)cc1`, the survivor count (T/C endpoint: mean survival time, dose: 200.0 mg/kg/injection, schedule: Q04DX003 (ip), vehicle: distilled water + Tween-80) is reported as 4 of 6.
`CCN(CC)CC(O)CNc1ncnc(N)c1C(=C(C)C)c1ccc(Cl)cc1` (stereo unspecified) was tested, and the survivor count [6] was 4 of 6 and the survivor count [5] was 0 of 6.
For `O=C1C2C(C(=O)N1c1ccc(OCc3ccccc3)cc1)C1c3ccccc3C2C2CCCCN21` (stereo unspecified), the survivor count (T/C endpoint: mean survival time, dose: 100.0 mg/kg/injection, schedule: Q01DX009 (ip), vehicle: water) was 0 of 6, the survivor count (T/C endpoint: mean survival time, dose: 200.0 mg/kg/injection, schedule: Q01DX009 (ip), vehicle: water) was 0 of 6 and the survivor count (T/C endpoint: mean survival time, dose: 400.0 mg/kg/injection, schedule: Q01DX009 (ip), vehicle: water) was 0 of 6.
In the case of `Cc1ccc(N=Nc2sc(N)nc2-c2cccc([N+](=O)[O-])c2)cc1`, the survivor count [3] is reported as 0 of 6.
For `Cc1cccnc1N.[Cl-].[Cl-].[Cl-].[Cl-].[Pt+2]`, the survivor count (T/C endpoint: mean survival time, dose: 87.5 mg/kg/injection, schedule: Q04DX003 (ip), vehicle: saline with Tween-80) was 3 of 3, the survivor count (T/C endpoint: mean survival time, dose: 175.0 mg/kg/injection, schedule: Q04DX003 (ip), vehicle: saline with Tween-80) was 0 of 3 and the survivor count (T/C endpoint: mean survival time, dose: 350.0 mg/kg/injection, schedule: Q04DX003 (ip), vehicle: saline with Tween-80) was 0 of 3.
With `C1CCC(CCC2CCCC[N-]2)[N-]C1.[I][Co][I]` (stereo unspecified) the survivor count (T/C endpoint: mean survival time, dose: 200.0 mg/kg/injection, schedule: Q01DX001 (ip), vehicle: saline) was 1 of 3 and the survivor count (T/C endpoint: mean survival time, dose: 400.0 mg/kg/injection, schedule: Q01DX001 (ip), vehicle: saline) was 0 of 3.
For `CC1(C(F)(F)F)CC(=O)NN1` (stereo unspecified), the survivor count [6] was 3 of 6 and the survivor count [5] was 0 of 6.
In the case of `O=C(CCl)OCC(Cl)Cl`, the survivor count [7] is reported as 0 of 6.
`CCC(=O)Nc1ncc([N+](=O)[O-])s1` was tested, and the survivor count [1] was 2 of 3.

From PubChem BioAssay AID256 (DTP/NCI, 2004)
